This is one part of the list. Single values are uncertain, as repeats are few or missing.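 Cells were imaged in 1,536-well plates, and nuclei stained with an antibody against cleaved PARP were counted against all DNA-stained nuclei to give the apoptosis fraction. Screening doses were chosen to leave most cells alive, and resting and induced cleaved-PARP levels differ strongly between cell lines.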
How the values were obtained:
Assay in all cases: cleaved PARP positive nuclei fraction relative to DMSO control; melanoma cells; higher = more apoptosis
Details in all cases: library dose: low library concentration; 72 h
CBRC034 = test system: CBRC034 (line from a melanoma biopsy)
COLO792 = test system: COLO792
COLO800 = test system: COLO800
COLO829 = test system: COLO829
G361 = test system: G361
IPC-298 = test system: IPC-298
IST-MEL1 = test system: IST-MEL1
LB2518-MEL = test system: LB2518-MEL
LOXIMVI = test system: LOXIMVI
MEL-HO = test system: MEL-HO
MZ2-MEL = test system: MZ2-MEL
MeWo = test system: MeWo
RPMI7951 = test system: RPMI7951
RVH-421 = test system: RVH-421
SkMel28 = test system: SkMel28
SkMel2 = test system: SkMel2
SkMel30 = test system: SkMel30
UACC62 = test system: UACC62

SMILES	cleaved PARP positive nuclei fraction (CBRC034)	cleaved PARP positive nuclei fraction (COLO792)	cleaved PARP positive nuclei fraction (COLO800)	cleaved PARP positive nuclei fraction (COLO829)	cleaved PARP positive nuclei fraction (G361)	cleaved PARP positive nuclei fraction (IPC-298)	cleaved PARP positive nuclei fraction (IST-MEL1)	cleaved PARP positive nuclei fraction (LB2518-MEL)	cleaved PARP positive nuclei fraction (LOXIMVI)	cleaved PARP positive nuclei fraction (MEL-HO)	cleaved PARP positive nuclei fraction (MZ2-MEL)	cleaved PARP positive nuclei fraction (MeWo)	cleaved PARP positive nuclei fraction (RPMI7951)	cleaved PARP positive nuclei fraction (RVH-421)	cleaved PARP positive nuclei fraction (SkMel28)	cleaved PARP positive nuclei fraction (SkMel2)	cleaved PARP positive nuclei fraction (SkMel30)	cleaved PARP positive nuclei fraction (UACC62)
O=C(Nc1cc(C(F)(F)F)cc(C(F)(F)F)c1)c1cc(Cl)ccc1O + OCc1c[nH]c2ccccc12 [Indole-3-carbinol] (first compound 0.016 µM, partner dose 0.8 µM)	70.3%	61%	173%	102%	73.9%	94.8%	145%	93.7%	105%	50.8%	119%	119%	125%	74.3%	92%	121%	95.6%	315%
COc1cc([C@@H]2c3cc4c(cc3[C@@H](O[C@@H]3O[C@@H]5CO[C@@H](C)O[C@H]5[C@H](O)[C@H]3O)[C@H]3COC(=O)[C@H]23)OCO4)cc(OC)c1O [etoposide] + Cn1c(Nc2ccc(C(F)(F)F)cc2)nc2cc(Oc3ccnc(-c4ncc(C(F)(F)F)[nH]4)c3)ccc21 [CHIR265] (first compound 0.02 µM, partner dose 0.08 µM)	61.7%	406%	79.5%	16.2%	179%	293%	36.5%	172%	64.5%	211%	79%	176%	225%	293%	316%	238%	121%	417%
O=C(/C=C/c1cccnc1)NCCCCC1CCN(C(=O)c2ccccc2)CC1 + C=CCNC1=C2C[C@@H](C)C[C@H](OC)[C@H](O)[C@@H](C)/C=C(\C)[C@H](OC(N)=O)[C@@H](OC)/C=C\C=C(/C)C(=O)NC(=CC1=O)C2=O [Tanespimycin] (first compound 0.01 µM, partner dose 0.002 µM)	609%	517%	169%	166%	3960%	382%	101%	319%	296%	435%	270%	100%	33.6%	103%	37.7%	1480%	73.2%	116%
Cc1cn(-c2cc(NC(=O)c3ccc(C)c(Nc4nccc(-c5cccnc5)n4)c3)cc(C(F)(F)F)c2)cn1 [nilotinib] + CCN(CC)CCNC(=O)c1c(C)[nH]c(/C=C2\C(=O)Nc3ccc(F)cc32)c1C [sunitinib] (first compound 0.2 µM, partner dose 0.4 µM)	86%	74.7%	69.9%	69.2%	56.7%	42.9%	57.5%	83.3%	47.5%	47.4%	34.9%	87.6%	89.2%	163%	40.2%	124%	488%	144%
Cc1cn(-c2cc(NC(=O)c3ccc(C)c(Nc4nccc(-c5cccnc5)n4)c3)cc(C(F)(F)F)c2)cn1 [nilotinib] + C[C@@H](Oc1cc(-c2cnn(C3CCNCC3)c2)cnc1N)c1c(Cl)ccc(F)c1Cl [Crizotinib] (first compound 0.2 µM, partner dose 0.2 µM)	93.8%	118%	70.6%	85%	65.9%	75.1%	133%	102%	59.7%	117%	38.6%	78.9%	80.2%	23.3%	74.9%	5870%	81.3%	66.2%
O=c1[nH]nc(Sc2ncc([N+](=O)[O-])s2)n1-c1ccc2c(c1)OCCO2 + CCCCCCCCc1ccc(CCC(N)(CO)CO)cc1 [fingolimod] (first compound 0.2 µM, partner dose 2 µM)	83.8%	66.9%	79.3%	128%	107%	87.9%	66.3%	50%	38.5%	27%	94.3%	40.8%	85.4%	62.7%	44%	38.1%	81.1%	91%
Cc1ccc(Nc2nccc(N(C)c3ccc4c(C)n(C)nc4c3)n2)cc1S(N)(=O)=O [Pazopanib] + Nc1ccn([C@@H]2O[C@H](CO)[C@@H](O)C2(F)F)c(=O)n1 [gemcitabine] (first compound 0.4 µM, partner dose 0.0004 µM)	72.3%	105%	10.5%	113%	111%	54.4%	61%	53.8%	39.1%	65.4%	178%	21.7%	57.5%	57.4%	43.5%	49%	73.3%	105%
Cc1ccc(Nc2nccc(N(C)c3ccc4c(C)n(C)nc4c3)n2)cc1S(N)(=O)=O [Pazopanib] + Cn1cnc2c(F)c(Nc3ccc(Br)cc3Cl)c(C(=O)NOCCO)cc21 [selumetinib] (first compound 0.4 µM, partner dose 0.015 µM)	243%	115%	151%	40.1%	282%	149%	174%	67.8%	107%	59.3%	93.8%	43.3%	55%	56.6%	166%	105%	69.3%	149%
O=c1[nH]nc(Sc2ncc([N+](=O)[O-])s2)n1-c1ccc2c(c1)OCCO2 + C[C@@H](N)c1ccc(C(=O)Nc2ccnc3[nH]ccc23)cc1 [RKI983] (first compound 0.2 µM, partner dose 0.4 µM)	58.8%	148%	63.7%	222%	199%	45.3%	67%	273%	177%	109%	295%	213%	63.1%	291%	88.5%	57.2%	83.1%	192%

From the supplement of paper PMC4604168 (melanoma cell lines)
